# From the supplement of paper PMC12595434, “Development of retinoid nuclear receptor pathway antagonists through targeting aldehyde dehydrogenase 1A3” (iScience, 2025)
# Amino acid sequences for entries named in this document (tags omitted). A change or cut given only in a name is not applied to a line headed by its entry.
# UniProt Q53GA4: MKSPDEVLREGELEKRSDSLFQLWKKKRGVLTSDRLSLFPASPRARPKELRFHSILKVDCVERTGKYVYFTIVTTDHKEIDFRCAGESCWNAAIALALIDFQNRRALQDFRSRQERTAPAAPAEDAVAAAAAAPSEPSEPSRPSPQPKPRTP
# UniProt Q15139: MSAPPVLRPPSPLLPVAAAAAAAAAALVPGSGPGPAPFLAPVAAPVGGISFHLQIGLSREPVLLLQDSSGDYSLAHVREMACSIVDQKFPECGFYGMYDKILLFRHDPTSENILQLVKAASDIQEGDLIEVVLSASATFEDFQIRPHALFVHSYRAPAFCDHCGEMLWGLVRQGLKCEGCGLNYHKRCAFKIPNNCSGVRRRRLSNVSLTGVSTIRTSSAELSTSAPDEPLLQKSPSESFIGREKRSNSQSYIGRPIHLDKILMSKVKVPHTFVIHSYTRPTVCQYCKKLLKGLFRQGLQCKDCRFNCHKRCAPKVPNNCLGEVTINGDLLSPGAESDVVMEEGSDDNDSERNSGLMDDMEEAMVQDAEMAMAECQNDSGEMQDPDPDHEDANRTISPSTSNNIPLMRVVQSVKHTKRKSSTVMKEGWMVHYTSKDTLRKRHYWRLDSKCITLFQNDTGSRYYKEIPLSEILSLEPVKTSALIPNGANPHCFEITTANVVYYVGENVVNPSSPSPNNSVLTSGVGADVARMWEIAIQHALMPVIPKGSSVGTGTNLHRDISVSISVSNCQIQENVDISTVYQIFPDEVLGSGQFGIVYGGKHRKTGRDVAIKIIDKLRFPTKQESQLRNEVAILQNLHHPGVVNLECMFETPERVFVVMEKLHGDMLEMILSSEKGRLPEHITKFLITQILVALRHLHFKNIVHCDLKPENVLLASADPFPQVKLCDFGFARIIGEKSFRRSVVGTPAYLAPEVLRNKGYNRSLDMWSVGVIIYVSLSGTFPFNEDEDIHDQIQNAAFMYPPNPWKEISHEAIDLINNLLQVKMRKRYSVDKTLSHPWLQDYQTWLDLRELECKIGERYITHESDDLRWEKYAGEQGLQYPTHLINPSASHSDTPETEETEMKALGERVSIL
# UniProt Q53T59: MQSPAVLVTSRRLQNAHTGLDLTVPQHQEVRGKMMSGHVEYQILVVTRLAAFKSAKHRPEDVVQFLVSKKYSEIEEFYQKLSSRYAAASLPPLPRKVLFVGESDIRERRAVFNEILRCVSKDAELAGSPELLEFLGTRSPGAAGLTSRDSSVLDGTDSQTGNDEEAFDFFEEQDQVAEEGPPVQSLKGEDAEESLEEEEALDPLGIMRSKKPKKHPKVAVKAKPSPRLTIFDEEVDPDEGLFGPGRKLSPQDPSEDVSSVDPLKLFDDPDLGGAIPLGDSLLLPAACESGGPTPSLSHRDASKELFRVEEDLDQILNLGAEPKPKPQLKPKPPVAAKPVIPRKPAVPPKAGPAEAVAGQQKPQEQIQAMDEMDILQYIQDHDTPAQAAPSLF
# UniProt Q15417: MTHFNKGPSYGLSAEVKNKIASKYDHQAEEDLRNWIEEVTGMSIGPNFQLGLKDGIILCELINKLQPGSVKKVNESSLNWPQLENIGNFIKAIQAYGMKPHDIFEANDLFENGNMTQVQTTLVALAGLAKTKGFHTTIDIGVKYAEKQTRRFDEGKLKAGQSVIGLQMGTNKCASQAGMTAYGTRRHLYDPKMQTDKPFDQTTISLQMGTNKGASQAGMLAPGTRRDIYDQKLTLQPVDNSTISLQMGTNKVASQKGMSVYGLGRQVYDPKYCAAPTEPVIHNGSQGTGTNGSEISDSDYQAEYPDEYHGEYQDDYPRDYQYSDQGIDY
# UniProt Q16513: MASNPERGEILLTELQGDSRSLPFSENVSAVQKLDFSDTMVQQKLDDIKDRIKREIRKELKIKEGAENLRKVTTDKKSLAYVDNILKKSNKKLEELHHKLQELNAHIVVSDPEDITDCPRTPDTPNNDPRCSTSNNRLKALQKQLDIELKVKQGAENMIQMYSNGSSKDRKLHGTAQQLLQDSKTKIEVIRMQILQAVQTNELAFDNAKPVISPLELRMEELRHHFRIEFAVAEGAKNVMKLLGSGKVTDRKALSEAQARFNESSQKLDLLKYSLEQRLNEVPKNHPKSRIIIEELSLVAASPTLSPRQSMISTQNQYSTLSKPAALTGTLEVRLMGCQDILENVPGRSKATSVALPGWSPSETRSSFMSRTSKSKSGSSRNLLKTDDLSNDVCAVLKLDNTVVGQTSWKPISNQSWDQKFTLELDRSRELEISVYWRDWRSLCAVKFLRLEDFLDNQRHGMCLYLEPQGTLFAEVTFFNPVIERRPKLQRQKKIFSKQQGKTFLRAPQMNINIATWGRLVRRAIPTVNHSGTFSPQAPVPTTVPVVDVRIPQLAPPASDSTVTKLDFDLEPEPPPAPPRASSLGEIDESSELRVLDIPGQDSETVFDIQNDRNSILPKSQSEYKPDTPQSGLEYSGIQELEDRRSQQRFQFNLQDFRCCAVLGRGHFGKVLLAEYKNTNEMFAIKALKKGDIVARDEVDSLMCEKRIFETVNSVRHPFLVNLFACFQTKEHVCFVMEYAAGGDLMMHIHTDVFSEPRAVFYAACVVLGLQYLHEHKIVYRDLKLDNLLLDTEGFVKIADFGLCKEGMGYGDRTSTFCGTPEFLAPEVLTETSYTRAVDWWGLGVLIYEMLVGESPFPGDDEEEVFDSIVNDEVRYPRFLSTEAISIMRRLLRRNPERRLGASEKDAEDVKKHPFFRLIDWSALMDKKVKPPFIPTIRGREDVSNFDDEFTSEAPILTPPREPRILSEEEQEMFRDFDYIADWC
# UniProt Q53T94: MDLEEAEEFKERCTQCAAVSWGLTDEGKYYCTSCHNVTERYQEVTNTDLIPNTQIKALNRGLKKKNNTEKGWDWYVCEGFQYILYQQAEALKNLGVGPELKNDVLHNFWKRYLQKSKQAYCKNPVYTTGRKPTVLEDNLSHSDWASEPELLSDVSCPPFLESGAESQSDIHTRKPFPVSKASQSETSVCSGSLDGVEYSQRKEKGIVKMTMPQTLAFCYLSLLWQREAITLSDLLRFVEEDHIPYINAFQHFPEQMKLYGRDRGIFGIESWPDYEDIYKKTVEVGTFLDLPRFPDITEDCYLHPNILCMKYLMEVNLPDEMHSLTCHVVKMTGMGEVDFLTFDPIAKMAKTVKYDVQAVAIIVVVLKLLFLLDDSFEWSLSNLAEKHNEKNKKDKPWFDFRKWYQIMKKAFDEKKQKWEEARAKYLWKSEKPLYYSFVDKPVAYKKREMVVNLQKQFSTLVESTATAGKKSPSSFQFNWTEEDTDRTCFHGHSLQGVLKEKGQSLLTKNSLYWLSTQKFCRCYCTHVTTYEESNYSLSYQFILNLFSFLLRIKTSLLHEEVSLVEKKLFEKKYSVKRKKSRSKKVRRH
# UniProt Q53EL6: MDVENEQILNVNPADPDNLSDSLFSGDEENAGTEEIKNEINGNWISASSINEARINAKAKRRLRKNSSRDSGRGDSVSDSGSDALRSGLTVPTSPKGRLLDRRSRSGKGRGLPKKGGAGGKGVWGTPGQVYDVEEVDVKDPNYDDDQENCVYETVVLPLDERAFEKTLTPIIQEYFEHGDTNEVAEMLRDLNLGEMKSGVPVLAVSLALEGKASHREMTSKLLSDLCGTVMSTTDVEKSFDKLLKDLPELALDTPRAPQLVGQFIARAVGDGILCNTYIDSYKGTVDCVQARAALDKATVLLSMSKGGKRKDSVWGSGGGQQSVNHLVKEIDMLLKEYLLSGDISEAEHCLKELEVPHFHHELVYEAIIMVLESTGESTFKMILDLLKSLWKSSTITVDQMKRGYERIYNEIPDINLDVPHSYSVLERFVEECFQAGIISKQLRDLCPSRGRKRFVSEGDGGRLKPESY
# UniProt Q15365, whole entry: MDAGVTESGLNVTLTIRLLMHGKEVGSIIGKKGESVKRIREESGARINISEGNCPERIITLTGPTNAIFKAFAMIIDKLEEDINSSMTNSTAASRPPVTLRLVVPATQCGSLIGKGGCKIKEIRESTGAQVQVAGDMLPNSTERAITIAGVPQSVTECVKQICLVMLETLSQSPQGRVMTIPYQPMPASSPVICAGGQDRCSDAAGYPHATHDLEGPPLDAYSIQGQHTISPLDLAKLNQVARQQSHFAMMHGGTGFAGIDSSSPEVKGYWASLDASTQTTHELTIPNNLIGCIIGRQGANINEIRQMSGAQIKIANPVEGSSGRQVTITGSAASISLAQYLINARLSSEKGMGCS
# UniProt Q15819: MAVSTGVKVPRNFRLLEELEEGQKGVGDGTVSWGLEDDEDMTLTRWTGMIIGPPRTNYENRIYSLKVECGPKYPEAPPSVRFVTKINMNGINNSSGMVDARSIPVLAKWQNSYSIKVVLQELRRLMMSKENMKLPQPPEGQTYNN
# UniProt Q16773: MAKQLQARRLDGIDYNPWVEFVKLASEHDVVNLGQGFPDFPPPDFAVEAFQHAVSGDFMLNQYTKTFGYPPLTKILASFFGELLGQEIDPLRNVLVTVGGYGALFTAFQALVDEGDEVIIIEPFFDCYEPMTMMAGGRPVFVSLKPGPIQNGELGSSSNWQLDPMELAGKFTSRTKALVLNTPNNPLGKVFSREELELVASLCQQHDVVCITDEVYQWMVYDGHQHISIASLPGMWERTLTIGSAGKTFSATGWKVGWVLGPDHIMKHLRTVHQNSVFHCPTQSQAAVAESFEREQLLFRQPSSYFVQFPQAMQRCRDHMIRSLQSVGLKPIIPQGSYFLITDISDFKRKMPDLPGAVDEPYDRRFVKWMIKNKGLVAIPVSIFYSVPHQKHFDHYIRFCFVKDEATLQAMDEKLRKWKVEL
# UniProt Q16644, whole entry, looked up: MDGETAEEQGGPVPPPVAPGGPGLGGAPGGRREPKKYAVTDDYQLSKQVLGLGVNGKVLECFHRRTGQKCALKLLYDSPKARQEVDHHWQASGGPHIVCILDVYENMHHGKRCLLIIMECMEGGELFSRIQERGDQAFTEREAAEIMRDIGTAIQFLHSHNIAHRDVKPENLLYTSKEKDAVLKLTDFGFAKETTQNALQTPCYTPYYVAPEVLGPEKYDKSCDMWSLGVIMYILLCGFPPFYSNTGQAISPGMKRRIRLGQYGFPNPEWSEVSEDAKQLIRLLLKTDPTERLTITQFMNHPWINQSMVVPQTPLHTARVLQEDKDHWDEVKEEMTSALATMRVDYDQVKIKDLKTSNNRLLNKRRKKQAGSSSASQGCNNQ
# UniProt Q16637, whole entry: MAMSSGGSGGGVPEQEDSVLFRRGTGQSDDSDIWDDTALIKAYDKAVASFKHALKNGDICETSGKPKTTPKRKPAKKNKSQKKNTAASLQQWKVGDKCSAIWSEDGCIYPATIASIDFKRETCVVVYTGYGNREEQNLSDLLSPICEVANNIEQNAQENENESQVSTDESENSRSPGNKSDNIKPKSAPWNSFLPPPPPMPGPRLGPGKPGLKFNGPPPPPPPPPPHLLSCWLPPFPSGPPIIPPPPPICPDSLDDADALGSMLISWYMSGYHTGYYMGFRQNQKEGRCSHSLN
# UniProt Q16643: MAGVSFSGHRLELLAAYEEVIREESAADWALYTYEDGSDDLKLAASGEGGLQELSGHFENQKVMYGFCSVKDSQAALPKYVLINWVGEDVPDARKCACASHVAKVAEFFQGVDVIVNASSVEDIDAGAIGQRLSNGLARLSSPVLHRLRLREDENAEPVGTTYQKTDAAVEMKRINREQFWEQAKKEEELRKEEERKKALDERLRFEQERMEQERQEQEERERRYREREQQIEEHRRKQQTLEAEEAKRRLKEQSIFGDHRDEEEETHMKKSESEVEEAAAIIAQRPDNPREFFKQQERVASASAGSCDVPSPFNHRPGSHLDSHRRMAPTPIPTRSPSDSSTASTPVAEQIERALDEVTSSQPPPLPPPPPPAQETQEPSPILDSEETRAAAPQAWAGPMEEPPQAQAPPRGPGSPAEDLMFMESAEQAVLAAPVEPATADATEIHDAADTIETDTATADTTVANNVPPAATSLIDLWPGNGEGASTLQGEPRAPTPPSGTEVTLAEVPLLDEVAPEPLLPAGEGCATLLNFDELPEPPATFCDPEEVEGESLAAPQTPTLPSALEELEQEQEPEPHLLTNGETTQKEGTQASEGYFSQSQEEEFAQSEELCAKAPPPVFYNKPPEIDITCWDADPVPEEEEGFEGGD
# UniProt Q16698: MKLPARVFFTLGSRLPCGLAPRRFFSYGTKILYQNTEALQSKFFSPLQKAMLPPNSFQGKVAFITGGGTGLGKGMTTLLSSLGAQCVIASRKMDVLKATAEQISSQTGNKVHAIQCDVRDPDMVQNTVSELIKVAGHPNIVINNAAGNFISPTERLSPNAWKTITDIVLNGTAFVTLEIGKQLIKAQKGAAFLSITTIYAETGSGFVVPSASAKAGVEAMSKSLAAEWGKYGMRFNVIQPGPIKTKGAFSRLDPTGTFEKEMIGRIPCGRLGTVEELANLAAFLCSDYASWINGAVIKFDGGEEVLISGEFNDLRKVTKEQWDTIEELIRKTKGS
# This is one part of the list. This is a noisy data set.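 Tm was set to 64 °C where no melting was found, and many curves are irregular.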
# Compound: CCc1cnccc1C(=O)Nc1cc2c(cc1F)NC(=O)CC2
# Experiment: melting temperature shift (DMSO Tm minus MBE1-treated Tm) in cellular thermal proteome profiling; higher = less thermal stabilization by MBE1 (negative = stabilized by MBE1)
# Conditions: A375
Target,melting temperature shift (MBE1 concentration: 100 nM),melting temperature shift (MBE1 concentration: 1 uM)
FAM98B (UniProt Q52LJ0),1.12 °C,0.727 °C
PHLDA2 (UniProt Q53GA4),-1.35 °C,-0.263 °C
TRIP13 (UniProt Q15645),0.879 °C,-0.311 °C
UniProt Q15528,0.269 °C,-0.842 °C
UniProt Q15139,1.97 °C,0.586 °C
HSDL1 (UniProt Q3SXM5),-0.647 °C,-1.63 °C
RHEB (UniProt Q15382),-1.01 °C,-0.215 °C
HS1BP3 (UniProt Q53T59),0.0047 °C,-0.296 °C
GRAMD1B (UniProt Q3KR37),-2.65 °C,-2.1 °C
PDK2 (UniProt Q15119),0.739 °C,0.501 °C
ACSF3 (UniProt Q4G176),-0.461 °C,-0.942 °C
UniProt Q15417,0.195 °C,-0.519 °C
UGT8 (UniProt Q16880),-1.42 °C,0.735 °C
NDUFA5 (UniProt Q16718),0.55 °C,0.238 °C
OXA1L (UniProt Q15070),-0.44 °C,-0.55 °C
PPP1R7 (UniProt Q15435),-0.731 °C,0.604 °C
SF3B3 (UniProt Q15393),-0.514 °C,0.263 °C
UniProt Q17RS7,-4.23 °C,-2.91 °C
RSU1 (UniProt Q15404),-1.22 °C,-0.128 °C
PAN2 (UniProt Q504Q3),-0.71 °C,-0.463 °C
UniProt Q16513,-0.682 °C,-0.574 °C
CWF19L2 (UniProt Q2TBE0),-0.577 °C,-0.436 °C
UniProt Q53T94,-0.904 °C,-2.34 °C
PDCD4 (UniProt Q53EL6),-0.447 °C,-0.79 °C

Target,melting temperature shift (MBE1 concentration: 100 nM),melting temperature shift (MBE1 concentration: 1 uM)
PCBP1 (UniProt Q15365),0.0672 °C,-0.898 °C
UBE2V2 (UniProt Q15819),-1.04 °C,0.0268 °C
TBCC (UniProt Q15814),-0.57 °C,0.181 °C
UniProt Q16773,-2.13 °C,-2.14 °C
MAPKAPK3 (UniProt Q16644),-1.2 °C,-1.21 °C
CCDC93 (UniProt Q567U6),0.684 °C,0.482 °C
TMED2 (UniProt Q15363),-0.287 °C,1.13 °C
UniProt Q460N5,-0.672 °C,-0.0256 °C
UniProt Q2KHR2,-0.39 °C,-2.58 °C
SMN1 (UniProt Q16637),-0.0847 °C,-0.353 °C
C5ORF22 (UniProt Q49AR2),-0.315 °C,0.369 °C
ARHGAP29 (UniProt Q52LW3),-8.97 °C,-5.58 °C
CEP55 (UniProt Q53EZ4),-0.807 °C,-0.198 °C
ETFDH (UniProt Q16134),-0.597 °C,-0.309 °C
HNRNPUL2 (UniProt Q1KMD3),0.275 °C,-0.195 °C
DBN1 (UniProt Q16643),-0.464 °C,0.189 °C
DECR1 (UniProt Q16698),-0.241 °C,-0.634 °C
EDRF1 (UniProt Q3B7T1),-0.414 °C,-0.442 °C
TCEB2 (UniProt Q15370),0.188 °C,-0.114 °C
UniProt Q15700,0.647 °C,1.03 °C
SF1 (UniProt Q15637),-1.49 °C,0.154 °C
NCOA2 (UniProt Q15596),-0.908 °C,-0.513 °C
PTPRK (UniProt Q15262),-5.85 °C,0.289 °C

# Shown tab-delimited: entries from further up
Target	melting temperature shift (MBE1 concentration: 100 nM)	melting temperature shift (MBE1 concentration: 1 uM)
UBE2V2 (UniProt Q15819)	-1.04 °C	0.0268 °C
HNRNPUL2 (UniProt Q1KMD3)	0.275 °C	-0.195 °C
PTPRK (UniProt Q15262)	-5.85 °C	0.289 °C
